Common to all, as to test: affinity purification with mass spectrometry; SCs transfected with WT-VMP1-flag, MT-VMP1-flag or flag control (NC); lysis in 25 mM Tris, 150 mM NaCl, 1 mM EDTA, 1% NP-40, 5% glycerol, pH 7.4; immunoprecipitation with anti-Flag; gel bands digested with trypsin, LC-MS/MS
The target of test [1] is WT-VMP1-flag (flag-tagged wild-type Vacuole Membrane Protein 1) (UniProt Q96GC9).
Test [2] addresses T1, MT-VMP1-flag (VMP1 C263, 278S palmitoylation-site mutant, flag-tagged) (UniProt Q96GC9).
T1 sequence: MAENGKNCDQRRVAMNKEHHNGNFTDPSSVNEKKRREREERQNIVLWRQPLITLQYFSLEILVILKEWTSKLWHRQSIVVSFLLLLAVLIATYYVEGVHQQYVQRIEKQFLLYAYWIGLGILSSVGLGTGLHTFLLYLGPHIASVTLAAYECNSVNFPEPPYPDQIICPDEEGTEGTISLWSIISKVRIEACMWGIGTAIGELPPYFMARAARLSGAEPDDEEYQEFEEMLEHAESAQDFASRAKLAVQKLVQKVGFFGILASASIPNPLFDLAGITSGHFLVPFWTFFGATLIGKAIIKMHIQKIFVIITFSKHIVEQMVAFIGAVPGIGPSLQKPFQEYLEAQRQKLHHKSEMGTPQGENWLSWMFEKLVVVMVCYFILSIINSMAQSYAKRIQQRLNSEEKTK

Sequences of proteins named here, by UniProt entry; tags and fusion partners are left off.
UniProt Q9H0U4: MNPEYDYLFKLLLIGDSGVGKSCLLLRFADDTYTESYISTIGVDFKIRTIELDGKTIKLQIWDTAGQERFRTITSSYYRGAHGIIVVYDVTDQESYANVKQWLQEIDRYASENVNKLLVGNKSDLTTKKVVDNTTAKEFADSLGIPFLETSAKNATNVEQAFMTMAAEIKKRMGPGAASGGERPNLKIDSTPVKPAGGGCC
UniProt Q8WUM4: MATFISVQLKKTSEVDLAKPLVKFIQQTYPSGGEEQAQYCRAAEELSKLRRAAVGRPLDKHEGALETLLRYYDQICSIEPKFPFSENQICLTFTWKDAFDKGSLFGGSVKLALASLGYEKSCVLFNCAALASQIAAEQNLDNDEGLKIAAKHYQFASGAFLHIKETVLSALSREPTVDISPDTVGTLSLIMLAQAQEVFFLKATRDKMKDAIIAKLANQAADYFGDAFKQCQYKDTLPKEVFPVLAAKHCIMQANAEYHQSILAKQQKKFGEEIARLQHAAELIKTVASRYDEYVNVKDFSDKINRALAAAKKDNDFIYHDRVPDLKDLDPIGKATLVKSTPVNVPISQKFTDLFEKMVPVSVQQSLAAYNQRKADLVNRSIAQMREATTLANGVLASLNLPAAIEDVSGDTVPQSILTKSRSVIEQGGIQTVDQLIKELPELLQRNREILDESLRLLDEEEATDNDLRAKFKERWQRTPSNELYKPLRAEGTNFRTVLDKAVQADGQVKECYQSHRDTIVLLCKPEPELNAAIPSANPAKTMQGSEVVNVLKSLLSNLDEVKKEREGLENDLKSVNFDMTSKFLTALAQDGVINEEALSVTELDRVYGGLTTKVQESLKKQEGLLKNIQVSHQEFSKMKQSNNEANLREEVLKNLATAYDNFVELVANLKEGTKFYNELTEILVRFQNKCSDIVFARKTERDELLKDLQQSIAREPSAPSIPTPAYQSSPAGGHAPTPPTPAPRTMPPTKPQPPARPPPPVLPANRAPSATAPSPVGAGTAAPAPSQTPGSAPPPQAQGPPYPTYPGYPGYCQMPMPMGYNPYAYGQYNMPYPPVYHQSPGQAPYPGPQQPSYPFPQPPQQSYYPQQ

Test [3] has as its target WT-VMP1-flag (flag-tagged wild-type Vacuole Membrane Protein 1) (UniProt Q96GC9). The source holds these as a separate data set.

Where two headings read alike, the source gives them in different places. No constants are given. Whether binding was seen depends on the method and setting. Binding seen in cells or lysates may run through a third protein. These calls come from enrichment with a bait or labelling near it, and not all partners need be listed. For some of these results: A no says only that the protein was not detected with the bait. For some of these results: Where a sequence is shown, tags or fusion partners need not be part of it.

With Rab1B (from UniProt Q9H0U4 1-201), the binding result in test [1] is on record as “binds”. With “ALIX (encoded by PDCD6IP gene), endogenous in Sertoli cells (from UniProt Q8WUM4 1-868)”, the binding result in test [2] was “no binding”; in test [1], “binds”.

B1: Rab9A (protein, UniProt P51151 1-201)
chain: MAGKSSLFKVILLGDGGVGKSSLMNRYVTNKFDTQLFHTIGVEFLNKDLEVDGHFVTMQIWDTAGQERFRSLRTPFYRGSDCCLLTFSVDDSQSFQNLSNWKKEFIYYADVKEPESFPFVILGNKIDISERQVSTEEAQAWCRDNGDYPYFETSAKDATNVAAAFEEAVRRVLATEDRSDHLIQTDTVNLHRKPKPSSSCC
In the case of B1, the binding result in test [3] is listed as “binds”.

The values above are taken from publication PMC10895845.
